{"source": "paper PMC5746060", "about": "(Cell Chemical Biology, 2017)", "test": "general procedure: hybrid (solid and solution phase) peptide synthesis; 2-chlorotrityl resin", "details": "whole synthesis"}
{"substance": "Ac-RVRHA-CONH-benzyl", "values": [{"measurement": "isolated yield", "value": 4.2, "unit": "%"}]}
